{"source": "paper PMC12470154", "about": "(International Journal of Molecular Sciences, 2025)", "note": "Plain letter strings leave the end groups untold.", "data": [{"test": "peptide made by a vendor", "details": "whole synthesis, HPLC", "units": {"purity (crude or final not stated)": "%"}, "values": [{"sequence": "RKKRRQRRRGGGGITDFGIFIGL", "purity (crude or final not stated)": 99.6}, {"sequence": "RKKRRQRRRGGGGITDFGIFIGLGGGGSRQIKIWFQNRRMKWKK", "purity (crude or final not stated)": 94.54}, {"sequence": "RKKRRQRRRGGGGVTDFGVFVEI", "purity (crude or final not stated)": 98.9}, {"sequence": "RKKRRQRRRGGGGVVVHINGGKFGGGGSRQIKIWFQNRRMKWKK", "purity (crude or final not stated)": 98.3}, {"sequence": "VTDFGVFVEIGGGGSRQIKIWFQNRRMKWKK", "purity (crude or final not stated)": 94.52}, {"sequence": "VVVHINGGKFGGGGSRQIKIWFQNRRMKWKK", "purity (crude or final not stated)": 98.03}]}]}
